Results are given in words; binding and its absence hold for the method and conditions named. Binding seen in cells or lysates may run through a third protein. Some results given as binding are weak or reduced against the parent protein; the word gives no strength. Where a sequence is shown, tags or fusion partners need not be part of it.
Molecular target: T1, GFP-MED19a (Arabidopsis) (UniProt Q9FMP0)
T1 sequence: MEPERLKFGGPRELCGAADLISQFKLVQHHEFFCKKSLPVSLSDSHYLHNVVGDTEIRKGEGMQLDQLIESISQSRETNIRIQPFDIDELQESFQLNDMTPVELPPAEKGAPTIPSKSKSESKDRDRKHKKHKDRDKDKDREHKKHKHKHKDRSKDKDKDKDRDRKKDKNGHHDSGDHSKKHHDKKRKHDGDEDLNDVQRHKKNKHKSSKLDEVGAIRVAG
Test: co-IP; co-immunoprecipitation analysis between GFP-MED19a and MED6 and MED7, read by immunoblot

binding: binds
B1: MED6 (protein, UniProt F4IXJ7 1-298)
chain: MDSSLLSAATADTFNGNAADQIPPPLQPPGTDMTGISFRDQLWINSYPLDRNYIFDYFALSPFYDTTCNNEILRRRSIHPLDLSHLSKMTGLEYMLTDATEPNLFVFRKQKRDGPEKVTPMLTYYILDGSIYQAPQLCSVFAARVSRTIYNISKAFTDAASKLETIRQDLQVCLVAIVLSLSVNLGSYFLLIFKLMANGEQVYGFNKFLFDTENQNEPAESKPASETVDLKEMKRVDVILTSLYRKLAPPPPPPPFPEGYVSQEALGEKEELGTQGGESQPPQVDPIIDQGPAKRMKF

From article PMC4775043
